This is a noisy data set.

The data set relates to Sindbis virus TE/5'2J-GFP. Nature of the data set: percent infected (GFP+ in RFP+ ISG-expressing cells); higher = more infection (less antiviral activity). To be noted: experiment: primary screen (single well).

As to “MSLRIDVDTNFPECVVDAGKVTLGTQQRQEMDPRLREKQNEIILRAVCALLNSGGGIIKAEIENKGYNYERHGVGLDVPPIFRSHLDKMQKENHFLIFVKSWNTEAGVPLATLCSNLYHRERTSTDVMDSQEALAFLKCRTQTPTNINVSNSLGPQAAQGSVQYEGNINVSAAALFDRKRLQYLEKLNLPESTHVEFVMFSTDVSHCVKDRLPKCVSAFANTEGGYVFFGVHDETCQVIGCEKEKIDLTSLRASIDGCIKKLPVHHFCTQRPEIKYVLNFLEVHDKGALRGYVCAIKVEKFCCAVFAKVPSSWQVKDNRVRQLPTREWTAWMMEADPDLSRCPEMVLQLSLSSATPRSKPVCIHKNSECLKEQQKRYFPVFSDRVVYTPESLYKELFSQHKGLRDLINTEMRPFSQGILIFSQSWAVDLGLQEKQGVICDALLISQNNTPILYTIFSKWDAGCKGYSMIVAYSLKQKLVNKGGYTGRLCITPLVCVLNSDRKAQSVYSSYLQIYPESYNFMTPQHMEALLQSLVIVLLGFKSFLSEELGSEVLNLLTNKQYELLSKNLRKTRELFVHGLPGSGKTILALRIMEKIRNVFHCEPANILYICENQPLKKLVSFSKKNICQPVTRKTFMKNNFEHIQHIIIDDAQNFRTEDGDWYGKAKFITQTARDGPGVLWIFLDYFQTYHLSCSGLPPPSDQYPREEINRVVRNAGPIANYLQQVMQEARQNPPPNLPPGSLVMLYEPKWAQGVPGNLEIIEDLNLEEILIYVANKCRFLLRNGYSPKDIAVLFTKASEVEKYKDRLLTAMRKRKLSQLHEESDLLLQIGDASDVLTDHIVLDSVCRFSGLERNIVFGINPGVAPPAGAYNLLLCLASRAKRHLYILKASV [SLFN5]”, the percent infected (BHK/HA-Zeo (control)) is 95.5% and the percent infected (BHK/NZAP-Zeo (ZAP)) is 88.3%.

As for “MQEGELAISPISPVAAMPPLGTHVQARCEAQINLLGEGGICKLPGRLRIQPALWSREDVLHWLRWAEQEYSLPCTAEHGFEMNGRALCILTKDDFRHRAPSSGDVLYELLQYIKTQRRALVCGPFFGGIFRLKTPTQHSPVPPEEVTGPSQMDTRRGHLLQPPDPGLTSNFGHLDDPGLARWTPGKEESLNLCHCAELGCRTQGVCSFPAMPQAPIDGRIADCRLLWDYVYQLLLDTRYEPYIKWEDKDAKIFRVVDPNGLARLWGNHKNRVNMTYEKMSRALRHYYKLNIIKKEPGQKLLFRFLKTPGKMVQDKHSHLEPLESQEQDRIEFKDKRPEISP [ETV7]”, the percent infected runs as follows: (BHK/HA-Zeo (control)) 97.4%; (BHK/NZAP-Zeo (ZAP)) 82.6%.

As for “MTTDEGAKNNEESPTATVAEQGEDITSKKDRGVLKIVKRVGNGEETPMIGDKVYVHYKGKLSNGKKFDSSHDRNEPFVFSLGKGQVIKAWDIGVATMKKGEICHLLCKPEYAYGSAGSLPKIPSNATLFFEIELLDFKGEDLFEDGGIIRRTKRKGEGYSNPNEGATVEIHLEGRCGGRMFDCRDVAFTVGEGEDHDIPIGIDKALEKMQREEQCILYLGPRYGFGEAGKPKFGIEPNAELIYEVTLKSFEKAKESWEMDTKEKLEQAAIVKEKGTVYFKGGKYMQAVIQYGKIVSWLEMEYGLSEKESKASESFLLAAFLNLAMCYLKLREYTKAVECCDKALGLDSANEKGLYRRGEAQLLMNEFESAKGDFEKVLEVNPQNKAARLQISMCQKKAKEHNERDRRIYANMFKKFAEQDAKEEANKAMGKKTSEGVTNEKGTDSQAMEEEKPEGHV [FKBP5]”, the percent infected (BHK/HA-Zeo (control)) turned out to be 98.3% and the percent infected (BHK/NZAP-Zeo (ZAP)) was found to be 94.4%. Taken in the same sequence, the figures for “MRQKAVSLFLCYLLLFTCSGVEAGKKKCSESSDSGSGFWKALTFMAVGGGLAVAGLPALGFTGAGIAANSVAASLMSWSAILNGGGVPAGGLVATLQSLGAGGSSVVIGNIGALMGYATHKYLDSEEDEE [IFI6]” were 92.8% and 86.4%. Regarding “MRSRLLLSVAHLPTIRETTEEMLLGGPGQEPPPSPSLDDYVRSISRLAQPTSVLDKATAQGQPRPPHRPAQACRKGRPAVSLRDITARFSGQQPTLPMADTVDPLDWLFGESQEKQPSQRDLPRRTGPSAGLWGPHRQMDSSKPMGAPRGRLCEARMPGHSLARPPQDGQQSSDLRSWTFGQSAQAMASRHRPRPSSVLRTLYSHLPVIHEL [C10orf10]”, the percent infected was 87.7% (BHK/HA-Zeo (control)) and 84.4% (BHK/NZAP-Zeo (ZAP)).

For the substance “METLSNASGTFAIRLLKILCQDNPSHNVFCSPVSISSALAMVLLGAKGNTATQMAQALSLNTEEDIHRAFQSLLTEVNKAGTQYLLRTANRLFGEKTCQFLSTFKESCLQFYHAELKELSFIRAAEESRKHINTWVSKKTEGKIEELLPGSSIDAETRLVLVNAIYFKGKWNEPFDETYTREMPFKINQEEQRPVQMMYQEATFKLAHVGEVRAQLLELPYARKELSLLVLLPDDGVELSTVEKSLTFEKLTAWTKPDCMKSTEVEVLLPKFKLQEDYDMESVLRHLGIVDAFQQGKADLSAMSAERDLCLSKFVHKSFVEVNEEGTEAAAASSCFVVAECCMESGPRFCADHPFLFFIRHNRANSILFCGRFSSP [SERPINB9]”, the percent infected runs as follows: (BHK/HA-Zeo (control)) 97.3%; (BHK/NZAP-Zeo (ZAP)) 88.5%. For CHMP5, the percent infected reads like this: (BHK/HA-Zeo (control)) 98.5%; (BHK/NZAP-Zeo (ZAP)) 98.4%. In the case of “MNTRNRVVNSGLGASPASRPTRDPQDPSGRQGELSPVEDQREGLEAAPKGPSRESVVHAGQRRTSAYTLIAPNINRRNEIQRIAEQELANLEKWKEQNRAKPVHLVPRRLGGSQSETEVRQKQQLQLMQSKYKQKLKREESVRIKKEAEEAELQKMKAIQREKSNKLEEKKRLQENLRREAFREHQQYKTAEFLSKLNTESPDRSACQSAVCGPQSSTWKLPILPRDHSWARSWAYRDSLKAEENRKLQKMKDEQHQKSELLELKRQQQEQERAKIHQTEHRRVNNAFLDRLQGKSQPGGLEQSGGCWNMNSGNSWGI [EPSTI1]”, the percent infected runs as follows: (BHK/HA-Zeo (control)) 95.2%; (BHK/NZAP-Zeo (ZAP)) 79.2%. Taken in the same sequence, the figures for “MSLRGSLSRLLQTRVHSILKKSVHSVAVIGAPFSQGQKRKGVEHGPAAIREAGLMKRLSSLGCHLKDFGDLSFTPVPKDDLYNNLIVNPRSVGLANQELAEVVSRAVSDGYSCVTLGGDHSLAIGTISGHARHCPDLCVVWVDAHADINTPLTTSSGNLHGQPVSFLLRELQDKVPQLPGFSWIKPCISSASIVYIGLRDVDPPEHFILKNYDIQYFSMRDIDRLGIQKVMERTFDLLIGKRQRPIHLSFDIDAFDPTLAPATGTPVVGGLTYREGMYIAEEIHNTGLLSALDLVEVNPQLATSEEEAKTTANLAVDVIASSFGQTREGGHIVYDQLPTPSSPDESENQARVRI [ARG2]” were 94.9% and 82.6%. In the case of “MMAKKPPKPAPRRIFQERLKITALPLYFEGFLLIKRSGYREYEHYWTELRGTTLFFYTDKKSIIYVDKLDIVDLTCLTEQNSTEKNCAKFTLVLPKEEVQLKTENTESGEEWRGFILTVTELSVPQNVSLLPGQVIKLHEVLEREKKRRIETEQSTSVEKEKEPTEDYVDVLNPMPACFYTVSRKEATEMLQKNPSLGNMILRPGSDSRNYSITIRQEIDIPRIKHYKVMSVGQNYTIELEKPVTLPNLFSVIDYFVKETRGNLRPFICSTDENTGQEPSMEGRSEKLKKNPHIA [STAP1]”, the percent infected by setting is: (BHK/HA-Zeo (control)) 98.2%; (BHK/NZAP-Zeo (ZAP)) 93.6%.

In turn, “MSKAHKPWPYRRRSQFSSRKYLKKEMNSFQQQPPPFGTVPPQMMFPPNWQGAEKDAAFLAKDFNFLTLNNQPPPGNRSQPRAMGPENNLYSQYEQKVRPCIDLIDSLRALGVEQDLALPAIAVIGDQSSGKSSVLEALSGVALPRGSGIVTRCPLVLKLKKQPCEAWAGRISYRNTELELQDPGQVEKEIHKAQNVMAGNGRGISHELISLEITSPEVPDLTIIDLPGITRVAVDNQPRDIGLQIKALIKKYIQRQQTINLVVVPCNVDIATTEALSMAHEVDPEGDRTIGILTKPDLMDRGTEKSVMNVVRNLTYPLKKGYMIVKCRGQQEITNRLSLAEATKKEITFFQTHPYFRVLLEEGSATVPRLAERLTTELIMHIQKSLPLLEGQIRESHQKATEELRRCGADIPSQEADKMFFLIEKIKMFNQDIEKLVEGEEVVRENETRLYNKIREDFKNWVGILATNTQKVKNIIHEEVEKYEKQYRGKELLGFVNYKTFEIIVHQYIQQLVEPALSMLQKAMEIIQQAFINVAKKHFGEFFNLNQTVQSTIEDIKVKHTAKAENMIQLQFRMEQMVFCQDQIYSVVLKKVREEIFNPLGTPSQNMKLNSHFPSNESSVSSFTEIGIHLNAYFLETSKRLANQIPFIIQYFMLRENGDSLQKAMMQILQEKNRYSWLLQEQSETATKRRILKERIYRLTQARHALCQFSSKEIH [MX2]” registered a percent infected (BHK/NZAP-Zeo (ZAP)) of 97.8%. Regarding “MGSQALPPGPMQTLIFFDMEATGLPFSQPKVTELCLLAVHRCALESPPTSQGPPPTVPPPPRVVDKLSLCVAPGKACSPAASEITGLSTAVLAAHGRQCFDDNLANLLLAFLRRQPQPWCLVAHNGDRYDFPLLQAELAMLGLTSALDGAFCVDSITALKALERASSPSEHGPRKSYSLGSIYTRLYGQSPPDSHTAEGDVLALLSICQWRPQALLRWVDAHARPFGTIRPMYGVTASARTKPRPSAVTTTAHLATTRNTSPSLGESRGTKDLPPVKDPGALSREGLLAPLGLLAILTLAVATLYGLSLATPGE [TREX1]”, the percent infected stood at 95.6% (BHK/HA-Zeo (control)) and 93.6% (BHK/NZAP-Zeo (ZAP)). The substance “MAVMEMACPGAPGSAVGQQKELPKAKEKTPPLGKKQSSVYKLEAVEKSPVFCGKWEILNDVITKGTAKEGSEAGPAAISIIAQAECENSQEFSPTFSERIFIAGSKQYSQSESLDQIPNNVAHATEGKMARVCWKGKRRSKARKKRKKKSSKSLAHAGVALAKPLPRTPEQESCTIPVQEDESPLGAPYVRNTPQFTKPLKEPGLGQLCFKQLGEGLRPALPRSELHKLISPLQCLNHVWKLHHPQDGGPLPLPTHPFPYSRLPHPFPFHPLQPWKPHPLESFLGKLACVDSQKPLPDPHLSKLACVDSPKPLPGPHLEPSCLSRGAHEKFSVEEYLVHALQGSVSSGQAHSLTSLAKTWAARGSRSREPSPKTEDNEGVLLTEKLKPVDYEYREEVHWATHQLRLGRGSFGEVHRMEDKQTGFQCAVKKVRLEVFRAEELMACAGLTSPRIVPLYGAVREGPWVNIFMELLEGGSLGQLVKEQGCLPEDRALYYLGQALEGLEYLHSRRILHGDVKADNVLLSSDGSHAALCDFGHAVCLQPDGLGKSLLTGDYIPGTETHMAPEVVLGRSCDAKVDVWSSCCMMLHMLNGCHPWTQFFRGPLCLKIASEPPPVREIPPSCAPLTAQAIQEGLRKEPIHRVSAAELGGKVNRALQQVGGLKSPWRGEYKEPRHPPPNQANYHQTLHAQPRELSPRAPGPRPAEETTGRAPKLQPPLPPEPPEPNKSPPLTLSKEESGMWEPLPLSSLEPAPARNPSSPERKATVPEQELQQLEIELFLNSLSQPFSLEEQEQILSCLSIDSLSLSDDSEKNPSKASQSSRDTLSSGVHSWSSQAEARSSSWNMVLARGRPTDTPSYFNGVKVQIQSLNGEHLHIREFHRVKVGDIATGISSQIPAAAFSLVTKDGQPVRYDMEVPDSGIDLQCTLAPDGSFAWSWRVKHGQLENRP [MAP3K14]” yielded a percent infected (BHK/NZAP-Zeo (ZAP)) of 67.8%. For “MASPHQEPKPGDLIEIFRLGYEHWALYIGDGYVIHLAPPSEYPGAGSSSVFSVLSNSAEVKRERLEDVVGGCCYRVNNSLDHEYQPRPVEVIISSAKEMVGQKMKYSIVSRNCEHFVTQLRYGKSRCKQVEKAKVEVGVATALGILVVAGCSFAIRRYQKKATA [RARRES3]”, the percent infected is, setting by setting: (BHK/HA-Zeo (control)) 98.6%; (BHK/NZAP-Zeo (ZAP)) 97.2%. Taken in the same sequence, the figures for “MSSAIERKSLDPSEEPVDEVLQIPPSLLTCGGCQQNIGDRYFLKAIDQYWHEDCLSCDLCGCRLGEVGRRLYYKLGRKLCRRDYLRLFGQDGLCASCDKRIRAYEMTMRVKDKVYHLECFKCAACQKHFCVGDRYLLINSDIVCEQDIYEWTKINGMI [LMO2]” were 91% and 75.6%.

For the origin of these results see the supplement of paper PMC3353916.
